The list is a part of this screen's results and no random one: it covers a few groups of compounds. Not every dose and run of a compound is shown. T/C gives the treated animals as a percentage of the vehicle group. Schedule codes are those of the source, taken here to give the interval after Q, in days (D) or hours (H), and the number of doses after X. Some entries show no survivor count and are marked so; the dose need not have been tolerated.
Test system: nude mice, A549 intrarenal xenograft, tumor weight change
Assay: NCI In Vivo Anticancer Drug Screen. Data for tumor model A549 Human Adenocarcinoma of Lung with characteristics of Type II Alveolar Epithelial cells (intrarenal inoculation) in NU/NU BALB/C (nude) mice
Conditions: T/C endpoint: mean tumor weight change, schedule: Q04DX003 (ip), evaluated on day 12, higher T/C = larger tumour
Procedure: The antitumor activity of compounds was measured in mice bearing transplantable tumors. Survival or tumor size were measured and the results are expressed as the measurement made in the treated group (T) divided by the measurement made in the vehicle treated control group (C). The tumor model used in this assay is A549 Human Adenocarcinoma of Lung with characteristics of Type II Alveolar Epithelial cells (intrarenal inoculation) in NU/NU BALB/C (nude) mice

Structure (SMILES) | T/C (dose: 1.25 mg/kg/injection, vehicle: Klucel (hydroxypropylcellulose) (HPC)) | T/C (dose: 2.5 mg/kg/injection, vehicle: Klucel (hydroxypropylcellulose) (HPC)) | T/C (dose: 12.5 mg/kg/injection, vehicle: saline + alcohol) | T/C (dose: 50.0 mg/kg/injection, vehicle: saline + alcohol)
CC1=C[C@H]2O[C@@H]3C[C@H]4OC(=O)/C=C\C=C\[C@H]([C@@H](C)O)OC[C@H](O)[C@@]5(C)O[C@@H]5C(=O)OC[C@@]2(C[C@H]1O)[C@]4(C)C31CO1 (some centres undefined) | 92 % of control [survivor count not shown] | 85 % of control [survivor count not shown] | – | –
CC(O)C1/C=C/C=C/C(=O)OC2CC3OC4C5OC5(C)C(O)CC4(COC(=O)C(O)C(C)CCO1)C2(C)C31CO1 (centres undefined) | – | – | 80 % of control [survivor count not shown] | 57 % of control [survivor count not shown]

Source: PubChem BioAssay AID278 (DTP/NCI, 2004)
